The list shows a part of the results. Most entries show no effect beyond the scatter of the controls.

Sequences of proteins named here, by UniProt entry; tags and fusion partners are left off. A change or cut given only in a name is not applied to a line headed by its entry.
UniProt Q9Z2U0: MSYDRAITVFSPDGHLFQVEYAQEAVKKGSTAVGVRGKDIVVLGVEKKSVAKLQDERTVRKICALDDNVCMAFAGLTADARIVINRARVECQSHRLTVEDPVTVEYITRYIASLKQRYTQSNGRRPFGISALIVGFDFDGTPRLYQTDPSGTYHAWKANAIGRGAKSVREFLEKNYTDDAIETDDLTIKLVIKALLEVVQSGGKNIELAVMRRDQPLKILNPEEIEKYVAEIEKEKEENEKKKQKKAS
UniProt Q9WVQ5: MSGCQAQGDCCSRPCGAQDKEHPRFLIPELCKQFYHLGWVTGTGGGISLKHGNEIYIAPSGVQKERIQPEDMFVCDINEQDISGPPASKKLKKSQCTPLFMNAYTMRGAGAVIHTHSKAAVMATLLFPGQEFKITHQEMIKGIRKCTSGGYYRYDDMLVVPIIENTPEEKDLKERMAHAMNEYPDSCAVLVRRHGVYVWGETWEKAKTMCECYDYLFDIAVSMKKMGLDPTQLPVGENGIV
UniProt Q9Z351, whole entry: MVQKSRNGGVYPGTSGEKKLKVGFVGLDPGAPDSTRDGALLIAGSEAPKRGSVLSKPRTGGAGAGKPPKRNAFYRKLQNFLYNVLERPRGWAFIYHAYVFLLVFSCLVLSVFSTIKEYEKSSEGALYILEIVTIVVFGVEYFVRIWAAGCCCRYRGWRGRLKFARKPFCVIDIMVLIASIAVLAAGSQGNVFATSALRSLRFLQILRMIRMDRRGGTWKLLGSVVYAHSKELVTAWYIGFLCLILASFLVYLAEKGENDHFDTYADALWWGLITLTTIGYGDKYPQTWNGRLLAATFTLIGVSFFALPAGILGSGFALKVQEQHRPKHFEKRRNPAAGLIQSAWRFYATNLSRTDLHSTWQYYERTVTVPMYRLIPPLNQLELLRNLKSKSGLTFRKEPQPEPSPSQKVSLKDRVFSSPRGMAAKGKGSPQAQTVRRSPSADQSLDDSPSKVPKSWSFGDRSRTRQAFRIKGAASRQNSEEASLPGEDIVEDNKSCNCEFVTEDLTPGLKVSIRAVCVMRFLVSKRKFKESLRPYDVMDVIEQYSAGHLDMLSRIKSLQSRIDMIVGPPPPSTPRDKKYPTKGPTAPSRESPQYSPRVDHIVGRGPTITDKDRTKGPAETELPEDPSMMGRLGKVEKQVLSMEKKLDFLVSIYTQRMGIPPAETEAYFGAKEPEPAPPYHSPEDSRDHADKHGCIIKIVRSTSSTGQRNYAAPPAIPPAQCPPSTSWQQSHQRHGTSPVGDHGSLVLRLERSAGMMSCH
UniProt Q9Z103: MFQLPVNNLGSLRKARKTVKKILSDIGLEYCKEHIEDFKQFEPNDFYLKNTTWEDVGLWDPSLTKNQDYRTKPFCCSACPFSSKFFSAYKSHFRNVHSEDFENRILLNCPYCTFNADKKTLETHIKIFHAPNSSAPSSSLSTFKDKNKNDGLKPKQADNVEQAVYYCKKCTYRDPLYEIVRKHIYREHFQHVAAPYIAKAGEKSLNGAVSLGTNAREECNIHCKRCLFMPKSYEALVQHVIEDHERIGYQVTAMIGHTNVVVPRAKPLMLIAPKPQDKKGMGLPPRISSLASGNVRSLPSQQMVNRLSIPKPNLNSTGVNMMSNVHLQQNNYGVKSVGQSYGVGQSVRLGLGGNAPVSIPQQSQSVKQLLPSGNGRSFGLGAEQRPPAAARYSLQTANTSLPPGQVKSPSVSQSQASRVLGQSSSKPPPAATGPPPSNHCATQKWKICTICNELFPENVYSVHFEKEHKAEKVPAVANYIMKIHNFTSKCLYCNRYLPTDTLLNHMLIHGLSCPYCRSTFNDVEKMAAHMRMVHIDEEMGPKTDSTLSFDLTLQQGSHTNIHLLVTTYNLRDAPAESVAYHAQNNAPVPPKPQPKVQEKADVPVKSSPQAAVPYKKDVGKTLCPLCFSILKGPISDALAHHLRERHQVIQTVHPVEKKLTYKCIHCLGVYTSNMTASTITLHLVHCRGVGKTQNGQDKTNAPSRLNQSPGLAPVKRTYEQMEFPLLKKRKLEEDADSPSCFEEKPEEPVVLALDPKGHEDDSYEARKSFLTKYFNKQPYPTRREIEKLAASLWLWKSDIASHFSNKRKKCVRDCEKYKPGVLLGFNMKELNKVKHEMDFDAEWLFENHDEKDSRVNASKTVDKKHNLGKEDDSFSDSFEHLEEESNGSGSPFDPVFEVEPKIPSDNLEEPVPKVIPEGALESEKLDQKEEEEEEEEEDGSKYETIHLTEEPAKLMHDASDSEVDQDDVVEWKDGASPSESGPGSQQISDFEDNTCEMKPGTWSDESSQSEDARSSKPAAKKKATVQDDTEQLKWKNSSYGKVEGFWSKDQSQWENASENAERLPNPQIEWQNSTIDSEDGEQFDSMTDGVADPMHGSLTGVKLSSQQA
UniProt Q9Z1Q2: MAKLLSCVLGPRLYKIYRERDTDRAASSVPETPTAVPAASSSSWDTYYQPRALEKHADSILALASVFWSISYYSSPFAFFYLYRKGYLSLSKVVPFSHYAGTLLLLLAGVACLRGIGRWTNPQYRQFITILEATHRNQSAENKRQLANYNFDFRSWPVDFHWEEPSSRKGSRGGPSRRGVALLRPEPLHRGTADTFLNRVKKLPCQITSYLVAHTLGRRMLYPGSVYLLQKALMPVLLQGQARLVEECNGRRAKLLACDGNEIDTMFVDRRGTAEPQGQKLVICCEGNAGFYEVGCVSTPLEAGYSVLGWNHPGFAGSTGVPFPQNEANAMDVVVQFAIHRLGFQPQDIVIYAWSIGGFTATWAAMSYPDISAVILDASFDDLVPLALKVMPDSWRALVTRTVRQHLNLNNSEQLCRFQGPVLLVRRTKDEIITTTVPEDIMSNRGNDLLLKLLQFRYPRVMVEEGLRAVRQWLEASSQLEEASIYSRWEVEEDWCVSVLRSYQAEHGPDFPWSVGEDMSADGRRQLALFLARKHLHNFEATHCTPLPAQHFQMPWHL
UniProt Q9Z126: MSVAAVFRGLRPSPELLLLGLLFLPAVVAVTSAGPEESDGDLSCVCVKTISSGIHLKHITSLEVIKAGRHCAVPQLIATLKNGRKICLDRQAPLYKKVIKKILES
UniProt Q9Z224: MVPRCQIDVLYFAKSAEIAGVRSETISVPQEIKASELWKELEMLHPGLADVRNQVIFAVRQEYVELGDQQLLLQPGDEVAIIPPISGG
UniProt Q9WVJ9: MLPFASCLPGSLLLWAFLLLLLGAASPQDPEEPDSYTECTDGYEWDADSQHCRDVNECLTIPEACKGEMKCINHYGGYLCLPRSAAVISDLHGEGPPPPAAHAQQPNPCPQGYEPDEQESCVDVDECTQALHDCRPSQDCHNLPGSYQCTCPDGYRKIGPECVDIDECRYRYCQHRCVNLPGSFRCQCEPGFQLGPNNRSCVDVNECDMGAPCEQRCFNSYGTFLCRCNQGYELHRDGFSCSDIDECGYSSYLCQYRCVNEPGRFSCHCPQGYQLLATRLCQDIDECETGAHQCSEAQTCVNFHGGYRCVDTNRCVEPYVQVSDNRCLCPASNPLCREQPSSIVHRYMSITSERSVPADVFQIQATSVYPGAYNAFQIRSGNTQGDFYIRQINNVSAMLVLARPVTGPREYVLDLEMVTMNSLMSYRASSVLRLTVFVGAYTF
UniProt Q9WVL0: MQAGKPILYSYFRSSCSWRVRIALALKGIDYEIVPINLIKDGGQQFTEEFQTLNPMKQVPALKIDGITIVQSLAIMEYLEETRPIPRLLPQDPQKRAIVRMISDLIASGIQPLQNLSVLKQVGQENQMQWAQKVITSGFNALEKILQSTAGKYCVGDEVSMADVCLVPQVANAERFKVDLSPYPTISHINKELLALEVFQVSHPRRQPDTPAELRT
UniProt Q9Z0L8: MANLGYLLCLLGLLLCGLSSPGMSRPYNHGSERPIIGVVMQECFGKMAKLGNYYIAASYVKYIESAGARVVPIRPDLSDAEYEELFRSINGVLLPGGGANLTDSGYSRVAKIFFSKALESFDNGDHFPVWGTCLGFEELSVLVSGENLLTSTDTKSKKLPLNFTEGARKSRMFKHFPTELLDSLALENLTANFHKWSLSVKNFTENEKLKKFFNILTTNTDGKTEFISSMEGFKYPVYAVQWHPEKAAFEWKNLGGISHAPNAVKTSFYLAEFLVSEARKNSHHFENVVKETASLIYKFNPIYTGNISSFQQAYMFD
UniProt Q9Z1B3: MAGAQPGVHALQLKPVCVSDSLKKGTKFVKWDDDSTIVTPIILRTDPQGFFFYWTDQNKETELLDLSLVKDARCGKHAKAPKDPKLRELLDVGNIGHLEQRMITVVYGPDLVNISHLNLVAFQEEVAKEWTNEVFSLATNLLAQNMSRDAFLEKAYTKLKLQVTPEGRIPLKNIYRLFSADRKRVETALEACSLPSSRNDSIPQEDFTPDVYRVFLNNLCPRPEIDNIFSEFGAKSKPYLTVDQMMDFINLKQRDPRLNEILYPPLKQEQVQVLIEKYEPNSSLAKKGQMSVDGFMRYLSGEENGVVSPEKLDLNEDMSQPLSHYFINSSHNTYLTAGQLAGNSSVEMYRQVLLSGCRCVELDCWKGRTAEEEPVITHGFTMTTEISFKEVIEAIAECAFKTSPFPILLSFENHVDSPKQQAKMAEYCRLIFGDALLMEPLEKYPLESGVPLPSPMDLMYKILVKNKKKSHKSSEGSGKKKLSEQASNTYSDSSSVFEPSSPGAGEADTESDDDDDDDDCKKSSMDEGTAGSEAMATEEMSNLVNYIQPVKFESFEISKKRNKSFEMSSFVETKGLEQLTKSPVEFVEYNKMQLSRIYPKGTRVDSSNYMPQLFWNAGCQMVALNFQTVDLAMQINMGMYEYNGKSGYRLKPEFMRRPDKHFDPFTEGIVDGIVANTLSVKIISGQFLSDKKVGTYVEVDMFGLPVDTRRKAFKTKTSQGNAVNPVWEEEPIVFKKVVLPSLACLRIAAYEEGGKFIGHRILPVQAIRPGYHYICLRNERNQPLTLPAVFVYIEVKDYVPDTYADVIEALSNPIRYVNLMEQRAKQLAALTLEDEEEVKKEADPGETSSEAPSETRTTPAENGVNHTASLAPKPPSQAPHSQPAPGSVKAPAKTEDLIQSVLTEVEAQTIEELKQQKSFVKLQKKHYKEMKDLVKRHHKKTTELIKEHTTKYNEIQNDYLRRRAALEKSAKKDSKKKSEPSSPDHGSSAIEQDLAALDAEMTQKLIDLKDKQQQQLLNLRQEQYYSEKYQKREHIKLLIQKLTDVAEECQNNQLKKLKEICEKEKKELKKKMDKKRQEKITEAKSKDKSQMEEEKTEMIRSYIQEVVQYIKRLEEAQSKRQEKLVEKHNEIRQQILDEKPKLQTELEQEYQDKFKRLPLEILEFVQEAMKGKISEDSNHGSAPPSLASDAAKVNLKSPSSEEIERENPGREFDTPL
UniProt Q9Z0H8: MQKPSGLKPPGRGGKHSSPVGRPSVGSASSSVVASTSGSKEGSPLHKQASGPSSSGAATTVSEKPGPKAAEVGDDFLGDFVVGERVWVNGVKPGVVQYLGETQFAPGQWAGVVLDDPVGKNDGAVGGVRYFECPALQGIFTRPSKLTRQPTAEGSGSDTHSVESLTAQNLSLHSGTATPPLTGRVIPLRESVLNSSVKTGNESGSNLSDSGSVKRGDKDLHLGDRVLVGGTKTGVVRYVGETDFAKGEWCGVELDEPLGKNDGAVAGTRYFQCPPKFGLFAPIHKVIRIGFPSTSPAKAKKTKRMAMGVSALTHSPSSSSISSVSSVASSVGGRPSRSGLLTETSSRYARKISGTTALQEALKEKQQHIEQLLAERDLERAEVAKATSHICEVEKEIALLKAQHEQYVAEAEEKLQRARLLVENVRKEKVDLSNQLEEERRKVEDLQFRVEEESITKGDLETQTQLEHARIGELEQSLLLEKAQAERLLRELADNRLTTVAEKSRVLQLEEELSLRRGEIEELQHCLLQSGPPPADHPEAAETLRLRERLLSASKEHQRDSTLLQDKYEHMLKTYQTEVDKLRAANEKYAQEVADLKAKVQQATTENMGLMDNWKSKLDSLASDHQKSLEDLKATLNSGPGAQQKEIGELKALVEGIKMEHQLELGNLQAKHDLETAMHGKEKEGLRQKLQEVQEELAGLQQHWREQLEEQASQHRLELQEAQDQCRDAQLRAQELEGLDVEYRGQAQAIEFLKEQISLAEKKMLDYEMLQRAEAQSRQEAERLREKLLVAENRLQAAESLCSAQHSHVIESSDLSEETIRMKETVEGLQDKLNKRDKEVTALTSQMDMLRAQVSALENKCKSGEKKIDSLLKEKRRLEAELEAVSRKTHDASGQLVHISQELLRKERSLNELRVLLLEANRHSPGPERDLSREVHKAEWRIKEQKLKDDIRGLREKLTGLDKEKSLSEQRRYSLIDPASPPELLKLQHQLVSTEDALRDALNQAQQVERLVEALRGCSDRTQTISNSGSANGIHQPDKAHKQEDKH
UniProt Q9Z0X0: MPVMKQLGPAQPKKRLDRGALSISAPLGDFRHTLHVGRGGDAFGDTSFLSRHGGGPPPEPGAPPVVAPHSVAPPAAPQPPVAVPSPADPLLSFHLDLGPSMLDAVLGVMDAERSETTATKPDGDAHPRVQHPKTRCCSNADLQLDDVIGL

Compound in this assay: CN[C@@H]1C[C@H]2O[C@@](C)([C@@H]1OC)n1c3ccccc3c3c4c(c5c6ccccc6n2c5c31)C(=O)NC4 [staurosporine]
Nature of the assay: log2 fold change of tryptic peptide abundance, ligand vs vehicle (limited proteolysis) (log2 ratio); higher = more trypsin-susceptible (destabilized). The settings on record: ligand concentration: 20 uM; sample: mouse liver crude lysate; replicate design: treated separately.
Regarding “UniProt Q9WVF7 (peptide sequence: RYEFKGLHK, peptide start residue: 765)”, the log2 fold change came to 0.411. “UniProt Q9Z2D1 (peptide sequence: LPSEDSLSSASTSHSENSVHTK, peptide start residue: 19)”: the log2 fold change was 0.464. As for “UniProt Q9WVT6 (peptide sequence: SVVFTSAR, peptide start residue: 325)”, the log2 fold change is -0.173.

As to “UniProt Q9Z0R9 (peptide sequence: ALIDIVSSLKK, peptide start residue: 422)”, the log2 fold change amounted to 0.419. As for “UniProt Q9Z2U0 (peptide sequence: ILNPEEIEK, peptide start residue: 219)”, the figure is 0.185; as for “UniProt Q9WVQ5 (peptide sequence: QFYHLGWVTGTGGGISLK, peptide start residue: 33)”, 0.327. In the case of “UniProt Q9Z351 (peptide sequence: DRVFSSPRGMAAK, peptide start residue: 413)”, the log2 fold change was -0.482. As for “UniProt Q9Z1T2 (peptide sequence: NSDKDIFGDACDNCR, peptide start residue: 535)”, the figure is -0.263.

Turning to “UniProt Q9Z103 (peptide sequence: KILSDIGLEYCKEHIEDFK, peptide start residue: 21)”, the log2 fold change was -0.623.

Take “UniProt Q9Z0M9 (peptide sequence: ALVLEELSPTLR, peptide start residue: 128)”: the log2 fold change was -0.38. As for “UniProt Q9Z1Q2 (peptide sequence: ALMPVLLQGQAR, peptide start residue: 232)”, the figure is -0.32; as for “UniProt Q9Z126 (peptide sequence: HCAVPQLIATLK, peptide start residue: 70)”, 0.174; as for “UniProt Q9Z2G6 (peptide sequence: TYEELKR, peptide start residue: 99)”, -0.21.

Take “UniProt Q9Z1Q9 (peptide sequence: FGLCAYTSQGR, peptide start residue: 923)”: the log2 fold change was found to be 0.271.

Take “UniProt Q9Z224 (peptide sequence: NQVIFAVR, peptide start residue: 53)”: the log2 fold change is -0.149. As for “UniProt Q9WVG6 (peptide sequence: SSNLLDLKNPFFR, peptide start residue: 464)”, the figure is -0.426; as for “UniProt Q9Z1W9 (peptide sequence: EGPCAVNLVLR, peptide start residue: 458)”, -0.609. For the target “UniProt Q9Z277 (peptide sequence: DSSSLSSPLNPK, peptide start residue: 324)”, the log2 fold change is -0.311. Take “UniProt Q9WVJ9 (peptide sequence: CINHYGGYLCLPR, peptide start residue: 71)”: the log2 fold change was 0.00553. As for “UniProt Q9WVL0 (peptide sequence: RQPDTPAELR, peptide start residue: 206)”, the figure is 0.113; as for “UniProt Q9Z0R4 (peptide sequence: QIGWFPANYVK, peptide start residue: 1117)”, 0.136; as for “UniProt Q9Z0L8 (peptide sequence: NLGGISHAPNAVK, peptide start residue: 253)”, 0.449. The result for “UniProt Q9Z1A9 (peptide sequence: RPLPHPEPLTAVFQQSGSQSPDSR, peptide start residue: 444)” reads 0.369; that for “UniProt Q9Z2V6 (peptide sequence: QHEVQLQK, peptide start residue: 108)”, -0.436.

As for “UniProt Q9Z2E2 (peptide sequence: KQQVGLQR, peptide start residue: 97)”, the log2 fold change is -0.517. The result for “UniProt Q9Z1N5 (peptide sequence: HFILDECDK, peptide start residue: 192)” reads -0.337; that for “UniProt Q9Z2R6 (peptide sequence: KGGGGTGSGAEPVPGASNR, peptide start residue: 5)”, 0.0396. As for “UniProt Q9Z1B3 (peptide sequence: TTELIKEHTTK, peptide start residue: 941)”, the figure is 0.392; as for “UniProt Q9Z0H8 (peptide sequence: AQHEQYVAEAEEK, peptide start residue: 402)”, -0.391. As for “UniProt Q9Z1T6 (peptide sequence: LVSVQEDAGKSPAR, peptide start residue: 289)”, the figure is -0.282; as for “UniProt Q9Z0H1 (peptide sequence: LGYDPDAK, peptide start residue: 539)”, -0.113. Turning to “UniProt Q9Z0X0 (peptide sequence: GGDAFGDTSFLSR, peptide start residue: 39)”, the log2 fold change stood at 0.21. As for “UniProt Q9Z1M8 (peptide sequence: LTNEDFRK, peptide start residue: 31)”, the figure is -0.74.

The values are drawn from the supplement of paper PMC12819154, “High-throughput peptide-centric local stability assay extends protein–ligand identification to membrane proteins, tissues and bacteria” (Nature Structural & Molecular Biology, 2025).
